Laboratory results published in PubChem BioAssay AID1487 (National Center for Advancing Translational Sciences (NCATS), 2009).
In all, about 200,000 compounds went through this assay and about 25 (0.01%) were called active. Inconclusive results, whose numbers are uncertain, are shown with a selection of clear calls. Calls follow the shape of the dose curve; as a rule, active = well fitted inhibition curve with a large enough effect in the signal ratio, with a control signal flat (not every such curve was filed as active); inconclusive = small, poorly fitted or top-dose-only effect, or effect the other way, or a change in a side signal; inactive = flat fitted curve, though single readings scatter; the % refers to the signal ratio. Potencies of inconclusive entries are doubtful fits and often do not repeat.

test: qHTS Assay for Modulators of Lamin A Splicing; conditions: HeLa LMNA splicing GFP/RFP minigene ratio, 48 h; ratio change, negative = inhibition: at 46.1 µM (top of the series) unless noted
In short: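 Read-out is the ratio of GFP to DsRed2 object intensity, acquired by 488 nm laser-scanning cytometry on HeLa lamin A-EGFP minigene reporter cells. Compound incubation 48 hrs at 37 °C in Opti-MEM with 2% FBS; DMSO 0.5% final.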
% is scaled to controls: 0 for no effect and ±100 for the full control effect; potency is read from the fitted curve at half-maximal effect.

Row | Compound | ratio change, negative = inhibition | Potency
1 | O=C(COC(=O)C12CC3CC(CC(O)(C3)C1)C2)NC12CC3CC(CC(C3)C1)C2 | inconclusive: 5.2% [at 46 µM] | –
2 | Cc1cc(S(=O)(=O)NCC(C)C)ccc1OCC(=O)NCc1ccccn1 | inconclusive: 15.8% | –
3 | Cc1cc(NS(=O)(=O)c2ccccc2)cc(Cl)c1O | inconclusive: 16.3% | –
4 | CC#CC[N+](C)(C)CCCCCCCCCCCC | – | inconclusive: 8.91 µM [fluorescent, partial curve]
5 | CC(C)C(C(=O)OCC(=O)c1ccccc1)N1C(=O)C2C3C=CC(C3)C2C1=O (stereo unspecified) | inconclusive: 9.27% [at 46 µM] | –
6 | COc1ccc(N2CCN(CCCNC(=O)Cn3c(-c4cccs4)cc4ccccc43)CC2)cc1 | inconclusive: -15.3% [at 46 µM] | –
7 | O=C(CSC1=NCCN1)NC1CCCCCC1 | inconclusive: -54.7% | –
8 | CCN(CC)CCCN(C(=O)c1cccs1)c1nc(-c2ccc(OC)cc2)cs1 | inconclusive: 6.98% | –
9 | Cc1ccc(C(=O)Nc2ccccc2-c2ccccc2)cc1[N+](=O)[O-] | inactive: 7.86% | –
10 | COc1ccc(NC(=O)C2CC2)cc1NS(=O)(=O)c1ccc(F)cc1 | inactive: -0.456% | –
11 | CCN(CC)S(=O)(=O)c1ccc(Cl)c(NC(=O)COC(=O)c2cc(-c3ccccc3Cl)nc3ccccc23)c1 | inconclusive: -17.3% | –
12 | CC(=O)N1CCC(N(Cc2ccc(C)o2)C(=O)Nc2ccc(C)cc2)CC1 | inactive: 12.6% [at 46 µM] | –
13 | Cc1cccc(/C(N)=N/OC(=O)Cc2ccccc2)c1 | inconclusive: 25.7% [at 46 µM] | –
14 | Cc1ccc([N+](=O)[O-])cc1NC(=S)NC(=O)c1cccnc1 | inactive: -4.09% [at 46 µM] | –
15 | CCNc1nc(NCC)nc(SCCOC(=O)Nc2ccc(Cl)cc2Cl)n1 | inconclusive: -46.2% | –
16 | Cc1cc(C)c2cc(C#N)c(NCCNC(=S)NCCCN3CCOCC3)nc2c1 | inconclusive: 0.972% [at 46 µM] | –
17 | COc1ccc(OC)c(N(CC(=O)Nc2cccnc2)S(=O)(=O)c2ccc(C)cc2)c1 | inactive: -20.6% | –
18 | Oc1ccc(/C=C/c2cc(O)cc(O)c2)cc1 | – | inconclusive: 35.5 µM [falling, single point]
19 | Cc1c(-n2c(O)c(C3=c4ccccc4=NC3=O)sc2=S)c(=O)n(-c2ccccc2)n1C | inconclusive: -34.5% [at 46 µM] | –
20 | CCOC(=O)c1nnn(-c2nonc2NC(C)=O)c1C | inactive: -9.38% | –
21 | Cc1ccc(SCc2noc(C(=O)NC(C)C)c2C(=O)O)cc1C | – | inconclusive: 0.0355 µM [inhibitor, single point]

Row | Compound | ratio change, negative = inhibition | Potency
22 | Cn1c(/C=C/c2ccc([N+](=O)[O-])o2)nc2ccccc2c1=O | – | inconclusive: 5.62 µM [cytotoxic, single point]
23 | COc1cccc(OC)c1C(=O)NCCSC1CCCCC1 | inconclusive: 11.4% [at 46 µM] | –
24 | CC(C(=O)NN=C(c1ccccc1)c1ccccc1)N1CCCC1 (stereo unspecified) | inconclusive: 25.1% [at 46 µM] | –
25 | CCOc1ccc(NC(=O)/C=C\C(=O)N(c2ccc(C(C)C)cc2)C(C(=O)NCc2ccco2)c2ccc(F)cc2)cc1 (stereo unspecified) | inconclusive: -36.6% [at 46 µM] | –
26 | COc1ccccc1-c1c(C)nn2c(N3CCCCCC3)cc(C)nc12 | – | inconclusive: 31.6 µM [falling, single point]
27 | COc1ccccc1NC(=O)c1ccccc1NS(=O)(=O)c1cccs1 | inactive: -11.8% [at 46 µM] | –
28 | COc1cc(C2SCC(=O)N2CCN2CCCCC2)ccc1O (stereo unspecified) | inconclusive: 6.48% [at 46 µM] | –
29 | COC(=O)c1c(NC(=O)Nc2ccc(Cl)cc2)sc(C)c1C | inactive: 13.5% | –
30 | O=C(C1=NN[C@@H]2C(=O)N(c3cccc(C(F)(F)F)c3)C(=O)[C@H]12)C(c1ccccc1)c1ccccc1 | inactive: -22.4% | –
31 | CC(C)Sc1ncnc2c1oc1ccccc12 | inconclusive: -1.12% | –
32 | CC1(C)OC2C(CO)OC(n3cnc4c(=O)[nH]c(N)nc43)C2O1 (stereo unspecified) | inactive: -4.01% | –
33 | COc1ccc(Cl)cc1NC(=S)NNC(=O)CC(C)C | inconclusive: 1.62% [at 46 µM] | –
34 | CCc1c(C)nc2ncnn2c1Nc1ccc(C#N)c(Cl)c1 | inactive: -6.7% | –
35 | O=C(COCc1cc(-c2ccc3c(c2)OCO3)on1)NCc1ccccc1Cl | inconclusive: -18.6% [at 46 µM] | –
36 | Cc1ccc(C)c(N2C(=O)CC(N3CCN(Cc4ccc5c(c4)OCO5)CC3)C2=O)c1 (stereo unspecified) | inactive: 1.56% | –
37 | O=C(COc1cccc2cccnc12)N/N=C/c1ccc(O)cc1 | – | inconclusive: 17.8 µM [inhibitor, partial curve, poor fit]
38 | O=C(COc1ccccc1)Nc1ccccc1OCc1cc(=O)n2ccccc2n1 | inconclusive: -6.93% [at 46 µM] | –
39 | COc1ccc(-n2c(SCC(=O)c3c(N)n(C)c(=O)n(C)c3=O)nc3ccccc32)cc1 | inconclusive: 0.12% | –
40 | COc1ccc(CCNC(=O)CSc2ccc(-c3ccco3)nn2)cc1 | inactive: -2.74% [at 46 µM] | –
41 | Cc1ccc(C(=O)c2cc([N+](=O)[O-])ccc2N2CCCCC2)cc1 | inconclusive: -27.1% | –
42 | CC(C)C(=O)OC/C(O)=C(\C#N)c1nc2ccccc2[nH]1 | inconclusive: 10.4% [at 46 µM] | –

Row | Compound | ratio change, negative = inhibition | Potency
43 | C=CCNC(=O)c1ccccc1NC(=O)c1ccccc1C | inactive: -9.82% | –
44 | CCCCCCCCC(=O)N/N=C/c1ccccn1 | inconclusive: -27.5% | –
45 | CCCN(CCC)S(=O)(=O)c1ccc(C(=O)Nc2nnc(COC)o2)cc1 | inconclusive: -38.7% [at 46 µM] | –
46 | COc1ccccc1NS(=O)(=O)c1ccc(O)c(NC(=S)NCC2CCCO2)c1 (stereo unspecified) | inactive: 3.57% [at 46 µM] | –
47 | CC(NCc1ccc(S(N)(=O)=O)cc1)C(=O)Nc1cc([N+](=O)[O-])ccc1Cl (stereo unspecified) | inconclusive: -6.82% [at 46 µM] | –
48 | CCOC(=O)CC(=O)Nc1nc2ccccc2s1 | inactive: 0.0455% | –
49 | Nc1c(C(=O)NC2CC2)c2nc3ccccc3nc2n1-c1ccc2c(c1)OCO2 | inactive: -1.75% | –
50 | Cc1ccc(NC(=O)c2c(C)oc3nc(C)nc(N4CCCC4)c23)c(C)c1 | inactive: -13.3% [at 46 µM] | –
51 | O=C(NCc1cccnc1)/C(=C\c1ccc(-c2cccc(Cl)c2)o1)S(=O)(=O)c1ccccc1 | – | inconclusive: 11.2 µM [inhibitor, partial curve]
52 | COc1cccc(-c2nccc(NC3CCNCC3)n2)c1 | inactive: 8.04% | –
53 | COc1ccc(C)cc1NC(=O)Cn1c(=O)ccc2cc(S(=O)(=O)N3CCC(C)CC3)ccc21 | inactive: 14.5% [at 46 µM] | –
54 | O=[N+]([O-])c1ccc(N2CCN(C(=S)Nc3cccc(F)c3)CC2)cc1 | inconclusive: -3.34% [at 46 µM] | –
55 | COc1ccc(/C(C)=N\O)cc1OC | inconclusive: 11.3% [at 46 µM] | –
56 | CCN(CC)c1ccc(/C=N/Nc2cccc(C)c2)c(O)c1 | inactive: 7.95% | –
57 | CCOC(=O)C1(Cc2ccccc2C(F)(F)F)CCN(C2CCC2)CC1 | inconclusive: -8.69% [at 46 µM] | –
58 | Cc1ccc(-n2ncc3c(NC4CCCCC4)ncnc32)cc1C | inconclusive: -11.9% [at 46 µM] | –
59 | Cc1ccc(C2C(C#N)=C(N)SC(N)=C2C#N)c(C)c1 | inconclusive: 17.3% | –
60 | C/C(=N\NC(=O)c1ccc(Cl)cc1)c1ccc(Br)s1 | inconclusive: -33% | –
61 | CCc1ncc(C(O)c2cccc(OC)c2OC)n1C (stereo unspecified) | inconclusive: -6.5% | –
62 | O=C(CCNS(=O)(=O)c1ccc2c(c1)CCN2C(=O)C1CC1)Nc1ccc(Cl)cc1 | inconclusive: -11% [at 46 µM] | –
63 | O=C(Nc1cccnc1)c1ccc(N2CCCC2)c([N+](=O)[O-])c1 | – | inconclusive: 22.4 µM [activator, partial curve]

Row | Compound | ratio change, negative = inhibition | Potency
64 | CCC1CCCCN1CCCNC(=O)c1ccc2c(c1)N(Cc1cccc(Cl)c1)C(=O)c1ccccc1S2(=O)=O (stereo unspecified) | inconclusive: -6.46% [at 46 µM] | –
65 | Cc1ccc(C)n1C1CCS(=O)(=O)C1 (stereo unspecified) | inconclusive: 14.4% | –
66 | O=C(NCc1ccccc1Cl)c1cnc2n(c1=O)CCS2 | inactive: 1.24% | –
67 | COc1cc2c3c(c1)C1(C(=O)N3C(C)(C)C=C2C)C(C#N)=C(N)Oc2cc(O)ccc21 (stereo unspecified) | inconclusive: 2.57% | –
68 | Cc1ccc([N+](=O)[O-])cc1-c1[nH]c(-c2ccc(O)c(O)c2)nc1-c1ccccc1 | inconclusive: 15.1% | –
69 | c1ccc(-c2noc(CSc3nnc(Cc4cccs4)n3-c3ccccc3)n2)cc1 | – | inconclusive: 35.5 µM [falling, single point]
70 | CC(C)N(C(=O)CSc1nnc(NC(=O)Cc2cccs2)s1)C(C)C | inconclusive: -17% [at 9.22 µM] | –
71 | Cc1c(NC(=O)c2c(N)sc3c2CCCC3)c(=O)n(-c2ccccc2)n1C | inconclusive: 23.8% [at 46 µM] | –
72 | COc1ccc(CNc2ncnc3c2c(-c2ccccc2)cn3-c2ccc(C)c(Cl)c2)cc1 | – | inconclusive: 6.31 µM [inhibitor, full curve, poor fit]
73 | CC(=O)Nc1ccc(S(=O)(=O)NCc2ccc(C(=O)NCCN3CCCCCC3)cc2)cc1 | inconclusive: 6.34% | –
74 | COc1ccc(C(=O)Nc2ccccc2C(=O)N/N=C/c2cccc3ccccc23)cc1 | inactive: 11.1% | –
75 | CCOC(=O)c1c(NC(=O)CSc2nnc(C)s2)sc2c1CCCCC2 | inactive: 5.92% | –
76 | COc1ccc(-c2nc3c(c4c2C[C@H](c2ccccc2)OC4)CN(C(=O)NCCc2c[nH]c4ccccc24)CC3)c(C)c1 | inactive: 5% [at 9.22 µM] | –
77 | O=C(NC(=S)N1CCN(c2ccc([N+](=O)[O-])cc2)CC1)c1ccccc1Cl | inactive: -8.32% [at 46 µM] | –
78 | O=C(N/N=C/c1ccc(N2CCCCC2)o1)c1ccccc1[N+](=O)[O-] | inactive: -0.579% | –
79 | CC1(OC(=O)C2CCCC2)C(=O)C=C2C=C(c3ccsc3)N(CCc3c[nH]c4ccccc34)C=C2C1=O (stereo unspecified) | inconclusive: -9.96% [at 9.22 µM] | –
80 | CC(C)(C)NC(=O)c1ccccc1-c1nc(-c2ccccc2Cl)no1 | inconclusive: 11.4% | –
81 | Cn1c(CN2CCOCC2)nnc1SCc1ccc(C#N)cc1 | inconclusive: 12% [at 46 µM] | –

19 of these compounds in a different format.
Row	Compound	ratio change, negative = inhibition	Potency
18	Oc1ccc(/C=C/c2cc(O)cc(O)c2)cc1	–	inconclusive: 35.5 µM [falling, single point]
19	Cc1c(-n2c(O)c(C3=c4ccccc4=NC3=O)sc2=S)c(=O)n(-c2ccccc2)n1C	inconclusive: -34.5% [at 46 µM]	–
20	CCOC(=O)c1nnn(-c2nonc2NC(C)=O)c1C	inactive: -9.38%	–
21	Cc1ccc(SCc2noc(C(=O)NC(C)C)c2C(=O)O)cc1C	–	inconclusive: 0.0355 µM [inhibitor, single point]
22	Cn1c(/C=C/c2ccc([N+](=O)[O-])o2)nc2ccccc2c1=O	–	inconclusive: 5.62 µM [cytotoxic, single point]
23	COc1cccc(OC)c1C(=O)NCCSC1CCCCC1	inconclusive: 11.4% [at 46 µM]	–
24	CC(C(=O)NN=C(c1ccccc1)c1ccccc1)N1CCCC1 (stereo unspecified)	inconclusive: 25.1% [at 46 µM]	–
25	CCOc1ccc(NC(=O)/C=C\C(=O)N(c2ccc(C(C)C)cc2)C(C(=O)NCc2ccco2)c2ccc(F)cc2)cc1 (stereo unspecified)	inconclusive: -36.6% [at 46 µM]	–
26	COc1ccccc1-c1c(C)nn2c(N3CCCCCC3)cc(C)nc12	–	inconclusive: 31.6 µM [falling, single point]
27	COc1ccccc1NC(=O)c1ccccc1NS(=O)(=O)c1cccs1	inactive: -11.8% [at 46 µM]	–
28	COc1cc(C2SCC(=O)N2CCN2CCCCC2)ccc1O (stereo unspecified)	inconclusive: 6.48% [at 46 µM]	–
29	COC(=O)c1c(NC(=O)Nc2ccc(Cl)cc2)sc(C)c1C	inactive: 13.5%	–
30	O=C(C1=NN[C@@H]2C(=O)N(c3cccc(C(F)(F)F)c3)C(=O)[C@H]12)C(c1ccccc1)c1ccccc1	inactive: -22.4%	–
31	CC(C)Sc1ncnc2c1oc1ccccc12	inconclusive: -1.12%	–
32	CC1(C)OC2C(CO)OC(n3cnc4c(=O)[nH]c(N)nc43)C2O1 (stereo unspecified)	inactive: -4.01%	–
33	COc1ccc(Cl)cc1NC(=S)NNC(=O)CC(C)C	inconclusive: 1.62% [at 46 µM]	–
34	CCc1c(C)nc2ncnn2c1Nc1ccc(C#N)c(Cl)c1	inactive: -6.7%	–
35	O=C(COCc1cc(-c2ccc3c(c2)OCO3)on1)NCc1ccccc1Cl	inconclusive: -18.6% [at 46 µM]	–
36	Cc1ccc(C)c(N2C(=O)CC(N3CCN(Cc4ccc5c(c4)OCO5)CC3)C2=O)c1 (stereo unspecified)	inactive: 1.56%	–
